Structures can show the parent of a compound that is named as a salt. The list shows a part of the results. Hit calls seldom repeat between salt and free forms of one compound.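 Kinases, fused to nanoluciferase, were expressed in K562 cells; luminescence was measured every 4 h from 2 to 18 h as percent of control (DMSO = 100%, positive control = 0%). A time point is decreased if signal falls significantly (2 sigma). Hits were called by the authors by a rule that is not shown; the count of time points alone does not decide it.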
Assays:
Conditions in all cases: K562; 2-18 h
STK38 = STK38 (UniProt Q15208); experiment: kinase-Nluc reporter destabilization hit call (1 = scored as downregulated) (binary); higher = compound decreases kinase abundance
SYK = SYK (UniProt P43405); experiment: as above
TEC = TEC (UniProt P42680); experiment: as above
TYK2 = TYK2 (UniProt P29597); experiment: as above
ULK3 = ULK3 (UniProt Q6PHR2); experiment: as above
YES1 = YES1 (UniProt P07947); experiment: as above
ZAK = ZAK (UniProt Q9NYL2); experiment: as above
ZAP70 = ZAP70 (UniProt P43403); experiment: as above
ABL1 = ABL1 (UniProt P00519); experiment: number of time points (of 5) at which kinase-Nluc abundance scored as decreased, DMSO-normalised (count); higher = more persistent destabilization
AKT1 = AKT1 (UniProt P31749); experiment: as above
ALK = ALK (UniProt Q9UM73); experiment: as above
ARAF = ARAF (UniProt P10398); experiment: as above
AURKA = AURKA (UniProt O14965); experiment: as above
AURKB = AURKB (UniProt Q96GD4); experiment: as above
AURKC = AURKC (UniProt Q9UQB9); experiment: as above
BLK = BLK (UniProt P51451); experiment: as above
BMX = BMX (UniProt P51813); experiment: as above
BRAF = BRAF (UniProt P15056); experiment: as above
BRAF_V600E = experiment: as above
BTK = BTK (UniProt Q06187); experiment: as above

Chains of the proteins cited; added tags and fusions are not shown. Lines headed by an entry give the natural chain unless they say otherwise; changes in a name come on top.
UniProt Q15208: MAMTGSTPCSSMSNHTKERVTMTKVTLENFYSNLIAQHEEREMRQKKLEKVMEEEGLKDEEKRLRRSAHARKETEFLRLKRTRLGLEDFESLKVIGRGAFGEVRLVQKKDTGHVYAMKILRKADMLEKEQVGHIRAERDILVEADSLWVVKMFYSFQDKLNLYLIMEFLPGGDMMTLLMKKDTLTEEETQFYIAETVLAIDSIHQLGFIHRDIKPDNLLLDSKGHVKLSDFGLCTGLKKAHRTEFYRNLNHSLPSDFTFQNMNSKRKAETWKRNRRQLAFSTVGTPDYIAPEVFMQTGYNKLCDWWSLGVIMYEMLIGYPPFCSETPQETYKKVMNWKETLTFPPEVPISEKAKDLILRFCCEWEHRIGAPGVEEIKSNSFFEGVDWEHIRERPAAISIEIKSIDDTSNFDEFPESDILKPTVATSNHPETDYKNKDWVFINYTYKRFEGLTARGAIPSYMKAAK
UniProt P29597: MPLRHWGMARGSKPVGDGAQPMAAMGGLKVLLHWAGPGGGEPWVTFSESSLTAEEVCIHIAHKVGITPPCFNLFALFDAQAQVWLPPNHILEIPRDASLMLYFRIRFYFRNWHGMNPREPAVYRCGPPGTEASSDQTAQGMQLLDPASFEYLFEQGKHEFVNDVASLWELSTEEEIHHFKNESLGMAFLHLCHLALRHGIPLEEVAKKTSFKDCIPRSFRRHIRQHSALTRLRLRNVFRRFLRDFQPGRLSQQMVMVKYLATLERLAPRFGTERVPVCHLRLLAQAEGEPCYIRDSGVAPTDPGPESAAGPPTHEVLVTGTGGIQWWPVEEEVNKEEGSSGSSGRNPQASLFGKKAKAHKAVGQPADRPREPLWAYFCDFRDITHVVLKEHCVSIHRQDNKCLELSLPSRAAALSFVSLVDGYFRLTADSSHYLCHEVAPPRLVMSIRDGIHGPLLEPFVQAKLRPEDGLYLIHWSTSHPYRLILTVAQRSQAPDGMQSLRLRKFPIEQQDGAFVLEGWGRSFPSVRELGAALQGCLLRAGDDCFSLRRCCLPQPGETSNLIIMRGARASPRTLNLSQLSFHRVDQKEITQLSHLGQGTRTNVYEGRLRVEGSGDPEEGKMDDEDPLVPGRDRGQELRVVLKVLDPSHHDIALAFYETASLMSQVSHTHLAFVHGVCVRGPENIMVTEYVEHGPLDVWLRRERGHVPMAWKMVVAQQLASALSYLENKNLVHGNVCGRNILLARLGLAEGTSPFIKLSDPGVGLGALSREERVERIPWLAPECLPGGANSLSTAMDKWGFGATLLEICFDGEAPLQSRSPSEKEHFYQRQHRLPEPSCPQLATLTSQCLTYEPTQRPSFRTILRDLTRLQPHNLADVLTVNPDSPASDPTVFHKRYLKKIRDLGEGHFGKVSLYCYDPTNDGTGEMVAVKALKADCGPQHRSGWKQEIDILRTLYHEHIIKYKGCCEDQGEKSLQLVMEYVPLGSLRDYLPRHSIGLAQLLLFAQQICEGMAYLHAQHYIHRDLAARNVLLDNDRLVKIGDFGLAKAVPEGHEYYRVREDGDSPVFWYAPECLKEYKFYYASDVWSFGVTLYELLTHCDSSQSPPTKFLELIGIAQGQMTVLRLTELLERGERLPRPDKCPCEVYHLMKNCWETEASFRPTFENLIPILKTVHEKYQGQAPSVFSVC
UniProt P43403: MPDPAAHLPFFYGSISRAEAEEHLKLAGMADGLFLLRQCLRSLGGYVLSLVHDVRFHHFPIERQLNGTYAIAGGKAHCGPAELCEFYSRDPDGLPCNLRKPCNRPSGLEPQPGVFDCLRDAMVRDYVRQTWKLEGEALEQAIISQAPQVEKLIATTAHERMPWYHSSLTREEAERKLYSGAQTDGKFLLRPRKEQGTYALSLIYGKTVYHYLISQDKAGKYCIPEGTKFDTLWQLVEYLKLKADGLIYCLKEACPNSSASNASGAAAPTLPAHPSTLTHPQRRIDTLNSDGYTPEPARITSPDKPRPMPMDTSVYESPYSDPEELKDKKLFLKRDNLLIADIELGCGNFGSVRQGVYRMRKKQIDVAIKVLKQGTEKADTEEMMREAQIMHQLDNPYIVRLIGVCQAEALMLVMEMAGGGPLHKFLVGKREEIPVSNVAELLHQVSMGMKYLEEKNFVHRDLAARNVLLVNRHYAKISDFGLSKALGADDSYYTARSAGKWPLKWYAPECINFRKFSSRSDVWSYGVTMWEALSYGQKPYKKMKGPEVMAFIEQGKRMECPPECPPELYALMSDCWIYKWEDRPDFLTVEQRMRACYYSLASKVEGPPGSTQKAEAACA
UniProt P00519, whole entry: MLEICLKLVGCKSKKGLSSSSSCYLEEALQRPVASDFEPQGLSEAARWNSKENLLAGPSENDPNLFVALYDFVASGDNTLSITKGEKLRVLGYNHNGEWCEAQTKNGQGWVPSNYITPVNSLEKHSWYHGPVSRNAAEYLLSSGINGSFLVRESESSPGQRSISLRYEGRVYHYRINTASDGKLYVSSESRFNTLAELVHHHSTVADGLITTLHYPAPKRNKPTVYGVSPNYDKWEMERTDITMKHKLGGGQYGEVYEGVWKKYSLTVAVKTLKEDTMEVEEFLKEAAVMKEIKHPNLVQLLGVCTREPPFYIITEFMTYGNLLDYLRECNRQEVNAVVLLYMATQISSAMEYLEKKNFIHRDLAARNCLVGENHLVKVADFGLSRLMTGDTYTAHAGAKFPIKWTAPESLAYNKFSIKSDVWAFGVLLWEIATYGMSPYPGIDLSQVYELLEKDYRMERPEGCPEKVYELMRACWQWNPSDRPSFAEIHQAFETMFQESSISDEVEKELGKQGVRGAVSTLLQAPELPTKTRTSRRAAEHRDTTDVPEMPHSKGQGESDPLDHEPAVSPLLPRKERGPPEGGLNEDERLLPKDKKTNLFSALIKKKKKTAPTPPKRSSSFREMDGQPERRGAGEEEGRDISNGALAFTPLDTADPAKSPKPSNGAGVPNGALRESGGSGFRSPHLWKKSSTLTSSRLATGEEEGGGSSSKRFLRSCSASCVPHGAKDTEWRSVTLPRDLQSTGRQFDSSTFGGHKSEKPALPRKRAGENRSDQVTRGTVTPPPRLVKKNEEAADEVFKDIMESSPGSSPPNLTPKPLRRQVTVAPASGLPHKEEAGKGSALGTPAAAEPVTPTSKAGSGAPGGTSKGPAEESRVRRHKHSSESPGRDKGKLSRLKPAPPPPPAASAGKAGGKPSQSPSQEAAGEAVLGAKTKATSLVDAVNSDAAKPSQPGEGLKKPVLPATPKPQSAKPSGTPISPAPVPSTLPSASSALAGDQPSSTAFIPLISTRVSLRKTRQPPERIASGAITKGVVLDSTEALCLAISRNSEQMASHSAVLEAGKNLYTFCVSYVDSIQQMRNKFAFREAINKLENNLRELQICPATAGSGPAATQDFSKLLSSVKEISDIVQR
UniProt P31749: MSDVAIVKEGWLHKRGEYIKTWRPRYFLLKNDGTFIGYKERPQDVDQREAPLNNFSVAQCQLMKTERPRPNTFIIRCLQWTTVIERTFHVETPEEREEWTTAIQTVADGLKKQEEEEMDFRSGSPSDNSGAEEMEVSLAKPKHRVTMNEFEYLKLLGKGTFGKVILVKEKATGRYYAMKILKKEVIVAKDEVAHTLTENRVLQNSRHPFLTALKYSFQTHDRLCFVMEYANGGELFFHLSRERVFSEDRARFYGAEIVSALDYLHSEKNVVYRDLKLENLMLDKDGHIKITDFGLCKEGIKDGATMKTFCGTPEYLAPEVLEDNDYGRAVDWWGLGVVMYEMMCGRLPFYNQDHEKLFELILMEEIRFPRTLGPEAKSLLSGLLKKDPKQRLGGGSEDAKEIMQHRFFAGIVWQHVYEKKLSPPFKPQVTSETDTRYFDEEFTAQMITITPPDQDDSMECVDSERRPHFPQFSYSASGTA
UniProt P10398: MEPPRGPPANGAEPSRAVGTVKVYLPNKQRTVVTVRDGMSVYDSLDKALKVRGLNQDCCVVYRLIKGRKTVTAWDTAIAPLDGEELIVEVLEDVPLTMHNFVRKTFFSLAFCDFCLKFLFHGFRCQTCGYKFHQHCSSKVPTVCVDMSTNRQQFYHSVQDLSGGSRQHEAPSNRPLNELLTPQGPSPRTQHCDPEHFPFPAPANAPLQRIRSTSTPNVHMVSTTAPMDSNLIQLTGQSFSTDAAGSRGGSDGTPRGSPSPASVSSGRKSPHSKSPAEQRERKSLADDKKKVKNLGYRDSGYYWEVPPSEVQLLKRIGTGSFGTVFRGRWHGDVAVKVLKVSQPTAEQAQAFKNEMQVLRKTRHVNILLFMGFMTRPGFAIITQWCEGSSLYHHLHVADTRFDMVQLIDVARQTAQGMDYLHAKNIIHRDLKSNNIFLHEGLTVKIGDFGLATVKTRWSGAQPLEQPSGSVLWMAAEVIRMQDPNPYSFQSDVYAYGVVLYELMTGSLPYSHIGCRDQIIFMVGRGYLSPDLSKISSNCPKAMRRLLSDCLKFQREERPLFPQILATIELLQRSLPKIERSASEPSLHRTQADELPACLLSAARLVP
UniProt Q96GD4, whole entry: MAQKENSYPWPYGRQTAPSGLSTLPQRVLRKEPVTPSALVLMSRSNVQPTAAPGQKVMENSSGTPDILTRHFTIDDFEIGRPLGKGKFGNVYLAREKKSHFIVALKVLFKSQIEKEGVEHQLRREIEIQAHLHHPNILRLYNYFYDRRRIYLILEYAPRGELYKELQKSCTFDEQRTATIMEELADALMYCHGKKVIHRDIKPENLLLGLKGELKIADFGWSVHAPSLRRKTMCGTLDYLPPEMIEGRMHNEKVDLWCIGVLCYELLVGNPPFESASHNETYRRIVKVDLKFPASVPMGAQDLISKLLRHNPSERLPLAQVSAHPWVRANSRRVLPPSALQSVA
UniProt Q9UQB9: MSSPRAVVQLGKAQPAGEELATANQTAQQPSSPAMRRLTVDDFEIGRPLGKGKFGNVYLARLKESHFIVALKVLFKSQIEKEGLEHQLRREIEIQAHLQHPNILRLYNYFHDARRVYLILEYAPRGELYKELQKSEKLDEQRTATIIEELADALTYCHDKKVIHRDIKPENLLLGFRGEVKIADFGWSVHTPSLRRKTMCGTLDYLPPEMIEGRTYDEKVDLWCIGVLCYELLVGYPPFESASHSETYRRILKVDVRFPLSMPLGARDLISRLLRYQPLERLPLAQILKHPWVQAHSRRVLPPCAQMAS
UniProt P51813: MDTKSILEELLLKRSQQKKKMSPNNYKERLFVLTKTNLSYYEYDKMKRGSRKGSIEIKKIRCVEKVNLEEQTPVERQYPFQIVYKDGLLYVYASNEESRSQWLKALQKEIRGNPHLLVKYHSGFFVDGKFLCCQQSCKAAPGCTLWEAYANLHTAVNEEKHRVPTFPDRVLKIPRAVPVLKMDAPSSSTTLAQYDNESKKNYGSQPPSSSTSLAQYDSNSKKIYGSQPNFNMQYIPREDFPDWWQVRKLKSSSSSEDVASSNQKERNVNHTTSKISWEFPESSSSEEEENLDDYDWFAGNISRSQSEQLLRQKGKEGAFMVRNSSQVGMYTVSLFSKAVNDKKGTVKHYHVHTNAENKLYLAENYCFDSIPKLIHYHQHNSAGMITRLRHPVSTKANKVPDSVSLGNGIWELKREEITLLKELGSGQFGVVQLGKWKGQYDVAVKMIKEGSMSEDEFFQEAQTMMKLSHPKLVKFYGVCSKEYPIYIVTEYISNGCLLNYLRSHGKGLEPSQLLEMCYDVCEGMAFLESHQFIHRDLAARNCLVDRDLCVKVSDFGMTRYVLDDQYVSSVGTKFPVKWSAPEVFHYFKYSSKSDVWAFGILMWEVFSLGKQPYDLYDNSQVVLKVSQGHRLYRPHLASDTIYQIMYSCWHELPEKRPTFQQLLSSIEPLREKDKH
UniProt Q06187: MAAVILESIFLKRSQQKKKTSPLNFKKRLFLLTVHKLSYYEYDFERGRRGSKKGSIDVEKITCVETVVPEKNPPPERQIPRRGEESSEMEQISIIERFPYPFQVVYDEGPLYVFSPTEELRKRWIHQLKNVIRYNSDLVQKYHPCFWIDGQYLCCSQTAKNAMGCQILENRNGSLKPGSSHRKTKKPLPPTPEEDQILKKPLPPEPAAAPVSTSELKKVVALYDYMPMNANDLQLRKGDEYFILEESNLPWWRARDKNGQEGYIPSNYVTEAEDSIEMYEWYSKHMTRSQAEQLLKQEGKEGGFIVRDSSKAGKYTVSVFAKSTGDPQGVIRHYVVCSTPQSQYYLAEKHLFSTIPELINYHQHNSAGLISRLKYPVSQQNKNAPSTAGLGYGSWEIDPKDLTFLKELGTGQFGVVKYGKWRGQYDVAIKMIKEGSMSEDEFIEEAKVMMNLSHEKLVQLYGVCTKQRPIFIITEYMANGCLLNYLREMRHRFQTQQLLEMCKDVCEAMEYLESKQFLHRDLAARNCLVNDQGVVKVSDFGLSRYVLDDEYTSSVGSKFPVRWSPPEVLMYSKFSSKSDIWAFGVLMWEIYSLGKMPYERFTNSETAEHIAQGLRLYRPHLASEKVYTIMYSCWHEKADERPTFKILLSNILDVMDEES

| Compound | kinase-Nluc reporter destabilization hit call (STK38) | kinase-Nluc reporter destabilization hit call (SYK) | kinase-Nluc reporter destabilization hit call (TEC) | kinase-Nluc reporter destabilization hit call (TYK2) | kinase-Nluc reporter destabilization hit call (ULK3) | kinase-Nluc reporter destabilization hit call (YES1) | kinase-Nluc reporter destabilization hit call (ZAK) | kinase-Nluc reporter destabilization hit call (ZAP70) | number of time points (ABL1) | number of time points (AKT1) | number of time points (ALK) | number of time points (ARAF) | number of time points (AURKA) | number of time points (AURKB) | number of time points (AURKC) | number of time points (BLK) | number of time points (BMX) | number of time points (BRAF) | number of time points (BRAF_V600E) | number of time points (BTK) |
| --- | --- | --- | --- | --- | --- | --- | --- | --- | --- | --- | --- | --- | --- | --- | --- | --- | --- | --- | --- | --- |
| CCN1CCN(Cc2ccc(-c3cc4c(N[C@H](C)c5ccccc5)ncnc4[nH]3)cc2)CC1 (2.5 µM) | inactive: 0 | inactive: 0 | inactive: 0 | inactive: 0 | inactive: 0 | inactive: 0 | inactive: 0 | inactive: 0 | 3 | 0 | 1 | 0 | 3 | 1 | 0 | 1 | 1 | 1 | 4 | 0 |
| N#Cc1c(C2CCNCC2)cc(-c2c(O)cccc2OCC2CC2)nc1N [ACHP (Hydrochloride)] (10 µM) | inactive: 0 | inactive: 0 | inactive: 0 | inactive: 0 | inactive: 0 | inactive: 0 | inactive: 0 | inactive: 0 | 0 | 0 | 0 | 0 | 0 | 0 | 0 | 0 | 0 | 0 | 3 | 0 |
| CN(C)C(=O)Cn1cc(-c2ccc(-c3cncc4ccccc34)cc2)cn1 (10 µM) | inactive: 0 | inactive: 0 | inactive: 0 | inactive: 0 | inactive: 0 | inactive: 0 | inactive: 0 | inactive: 0 | 0 | 0 | 0 | 0 | 0 | 0 | 0 | 0 | 0 | 0 | 0 | 0 |
| O=S(=O)(NCCCN1c2ccccc2CCc2ccc(Cl)cc21)c1ccc(OC(F)(F)F)cc1 (2.5 µM) | inactive: 0 | inactive: 0 | inactive: 0 | inactive: 0 | inactive: 0 | inactive: 0 | inactive: 0 | inactive: 0 | 0 | 0 | 0 | 0 | 0 | 0 | 0 | 0 | 0 | 0 | 0 | 0 |
| NS(=O)(=O)c1ccc(-n2nc(C(F)(F)F)cc2-c2ccc(Cl)cc2)cc1 (10 µM) | inactive: 0 | inactive: 0 | inactive: 0 | inactive: 0 | inactive: 0 | inactive: 0 | inactive: 0 | inactive: 0 | 0 | 0 | 0 | 0 | 0 | 0 | 0 | 0 | 0 | 0 | 0 | 0 |
| C[C@@H]1COCCN1c1cc(C2([S@@](C)(=N)=O)CC2)nc(-c2ccnc3[nH]ccc23)n1 [(S)-Ceralasertib] (10 µM) | inactive: 0 | inactive: 0 | inactive: 0 | inactive: 0 | inactive: 0 | inactive: 0 | inactive: 0 | inactive: 0 | 0 | 0 | 0 | 0 | 0 | 0 | 0 | 0 | 0 | 0 | 0 | 0 |
| O=C(CSC1=NCCN1)NC1CCCCCC1 [ICCB-19 (hydrochloride)] (2.5 µM) | inactive: 0 | inactive: 0 | inactive: 0 | inactive: 0 | inactive: 0 | inactive: 0 | inactive: 0 | inactive: 0 | 0 | 0 | 0 | 0 | 0 | 0 | 0 | 0 | 0 | 0 | 0 | 0 |
| Cn1nccc1Nc1nccc(-c2ccn([C@H](CO)c3ccc(Cl)c(F)c3)c(=O)c2)n1 [Ravoxertinib] (10 µM) | inactive: 0 | inactive: 0 | inactive: 0 | inactive: 0 | inactive: 0 | inactive: 0 | inactive: 0 | inactive: 0 | 0 | 0 | 0 | 0 | 0 | 0 | 0 | 0 | 0 | 0 | 0 | 0 |
| O=C(O)CCC(=O)Nc1ccc(Br)cn1 [Bikinin] (10 µM) | inactive: 0 | inactive: 0 | inactive: 0 | inactive: 0 | inactive: 0 | inactive: 0 | inactive: 0 | inactive: 0 | 0 | 0 | 0 | 0 | 0 | 0 | 0 | 0 | 0 | 0 | 0 | 0 |
| COc1ncc(Cl)cc1S(=O)(=O)Nc1ccc(F)c(C#Cc2cnc(N)nc2)c1F (2.5 µM) | inactive: 0 | inactive: 0 | inactive: 0 | inactive: 0 | inactive: 0 | inactive: 0 | inactive: 0 | inactive: 0 | 0 | 0 | 0 | 0 | 0 | 0 | 0 | 0 | 5 | 0 | 0 | 0 |
| COc1cccc(OC)c1C(=O)OCc1cc(O)ccc1O[C@@H]1O[C@H](CO)[C@@H](O)[C@H](O)[C@H]1O [Curculigoside] (10 µM) | inactive: 0 | inactive: 0 | inactive: 0 | inactive: 0 | inactive: 0 | inactive: 0 | inactive: 0 | inactive: 0 | 0 | 0 | 0 | 0 | 0 | 0 | 0 | 0 | 0 | 0 | 0 | 0 |
